These are yes or no findings as the source states them, for the method shown. For some of these results: In cells and extracts the contact can be indirect. Some entries that bind do so weakly or less than the wild type.
B1: retinoblastoma (Rb) protein, endogenous (protein, UniProt P06400 1-928)
chain: MPPKTPRKTAATAAAAAAEPPAPPPPPPPEEDPEQDSGPEDLPLVRLEFEETEEPDFTALCQKLKIPDHVRERAWLTWEKVSSVDGVLGGYIQKKKELWGICIFIAAVDLDEMSFTFTELQKNIEISVHKFFNLLKEIDTSTKVDNAMSRLLKKYDVLFALFSKLERTCELIYLTQPSSSISTEINSALVLKVSWITFLLAKGEVLQMEDDLVISFQLMLCVLDYFIKLSPPMLLKEPYKTAVIPINGSPRTPRRGQNRSARIAKQLENDTRIIEVLCKEHECNIDEVKNVYFKNFIPFMNSLGLVTSNGLPEVENLSKRYEEIYLKNKDLDARLFLDHDKTLQTDSIDSFETQRTPRKSNLDEEVNVIPPHTPVRTVMNTIQQLMMILNSASDQPSENLISYFNNCTVNPKESILKRVKDIGYIFKEKFAKAVGQGCVEIGSQRYKLGVRLYYRVMESMLKSEEERLSIQNFSKLLNDNIFHMSLLACALEVVMATYSRSTSQNLDSGTDLSFPWILNVLNLKAFDFYKVIESFIKAEGNLTREMIKHLERCEHRIMESLAWLSDSPLFDLIKQSKDREGPTDHLESACPLNLPLQNNHTAADMYLSPVRSPKKKGSTTRVNSTANAETQATSAFQTQKPLKSTSLSLFYKKVYRLAYLRLNTLCERLLSEHPELEHIIWTLFQHTLQNEYELMRDRHLDQIMMCSMYGICKVKNIDLKFKIIVTAYKDLPHAVQETFKRVLIKEEEYDSIIVFYNSVFMQRLKTNILQYASTRPPTLSPIPHIPRSPYKFPSSPLRIPGGNIYISPLKSPYKISEGLPTPTKMTPRSRILVSIGESFGTSEKFQKINQMVCNSDRVLKRSAEGSNPPKPLKKLRFDIEGSDEADGSKHLPGESKFQQKLAEMTSTRTRMQKQKMNDSMDTSNKEEK

Amino acid sequences for entries named in this document (tags omitted).
UniProt Q8IVW4: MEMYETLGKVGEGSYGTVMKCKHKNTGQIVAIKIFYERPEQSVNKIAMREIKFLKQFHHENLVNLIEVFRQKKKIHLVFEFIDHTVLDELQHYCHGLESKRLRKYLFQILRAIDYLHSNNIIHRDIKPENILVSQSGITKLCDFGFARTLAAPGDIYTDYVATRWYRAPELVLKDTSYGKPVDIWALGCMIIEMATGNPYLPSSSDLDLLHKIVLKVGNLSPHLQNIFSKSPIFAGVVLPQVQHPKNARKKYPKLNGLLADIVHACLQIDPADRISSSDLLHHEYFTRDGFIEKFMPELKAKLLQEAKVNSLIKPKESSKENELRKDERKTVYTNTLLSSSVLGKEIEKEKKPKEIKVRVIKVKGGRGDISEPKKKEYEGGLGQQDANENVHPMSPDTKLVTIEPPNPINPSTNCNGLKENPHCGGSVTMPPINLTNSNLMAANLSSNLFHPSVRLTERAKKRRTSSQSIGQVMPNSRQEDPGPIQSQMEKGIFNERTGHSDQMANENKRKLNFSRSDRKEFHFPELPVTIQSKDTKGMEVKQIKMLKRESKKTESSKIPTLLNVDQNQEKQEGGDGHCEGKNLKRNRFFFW
UniProt P20248: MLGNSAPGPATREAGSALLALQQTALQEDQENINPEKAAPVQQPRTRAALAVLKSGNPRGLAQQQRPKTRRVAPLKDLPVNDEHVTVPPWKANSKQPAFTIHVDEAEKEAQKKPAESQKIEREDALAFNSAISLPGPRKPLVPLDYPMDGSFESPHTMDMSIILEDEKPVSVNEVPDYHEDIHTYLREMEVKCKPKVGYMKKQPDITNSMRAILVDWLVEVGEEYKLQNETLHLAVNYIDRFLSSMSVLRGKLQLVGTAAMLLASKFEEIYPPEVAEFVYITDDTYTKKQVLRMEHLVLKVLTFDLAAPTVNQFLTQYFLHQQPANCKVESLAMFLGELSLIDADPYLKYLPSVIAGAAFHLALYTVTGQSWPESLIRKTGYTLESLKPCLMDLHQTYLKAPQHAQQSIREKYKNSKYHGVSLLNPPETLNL
UniProt P14635: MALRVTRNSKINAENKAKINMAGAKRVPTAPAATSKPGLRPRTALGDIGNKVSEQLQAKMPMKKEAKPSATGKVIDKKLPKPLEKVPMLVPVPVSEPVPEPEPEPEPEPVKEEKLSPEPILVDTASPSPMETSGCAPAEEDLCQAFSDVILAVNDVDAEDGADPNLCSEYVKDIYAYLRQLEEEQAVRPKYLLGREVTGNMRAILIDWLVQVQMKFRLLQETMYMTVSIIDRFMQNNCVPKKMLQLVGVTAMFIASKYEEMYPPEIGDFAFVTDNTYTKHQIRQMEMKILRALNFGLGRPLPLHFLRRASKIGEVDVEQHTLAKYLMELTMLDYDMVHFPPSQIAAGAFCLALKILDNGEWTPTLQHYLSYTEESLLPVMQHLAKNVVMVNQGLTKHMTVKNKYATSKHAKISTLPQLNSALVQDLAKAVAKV
UniProt P24385: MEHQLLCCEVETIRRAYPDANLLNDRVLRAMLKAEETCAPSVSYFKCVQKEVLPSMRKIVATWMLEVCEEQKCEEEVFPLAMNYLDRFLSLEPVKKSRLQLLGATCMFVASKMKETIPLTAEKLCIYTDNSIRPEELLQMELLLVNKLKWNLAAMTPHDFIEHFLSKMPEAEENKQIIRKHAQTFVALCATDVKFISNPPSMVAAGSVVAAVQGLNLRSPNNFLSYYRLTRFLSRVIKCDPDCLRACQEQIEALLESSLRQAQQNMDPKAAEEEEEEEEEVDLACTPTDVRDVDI
UniProt P24864: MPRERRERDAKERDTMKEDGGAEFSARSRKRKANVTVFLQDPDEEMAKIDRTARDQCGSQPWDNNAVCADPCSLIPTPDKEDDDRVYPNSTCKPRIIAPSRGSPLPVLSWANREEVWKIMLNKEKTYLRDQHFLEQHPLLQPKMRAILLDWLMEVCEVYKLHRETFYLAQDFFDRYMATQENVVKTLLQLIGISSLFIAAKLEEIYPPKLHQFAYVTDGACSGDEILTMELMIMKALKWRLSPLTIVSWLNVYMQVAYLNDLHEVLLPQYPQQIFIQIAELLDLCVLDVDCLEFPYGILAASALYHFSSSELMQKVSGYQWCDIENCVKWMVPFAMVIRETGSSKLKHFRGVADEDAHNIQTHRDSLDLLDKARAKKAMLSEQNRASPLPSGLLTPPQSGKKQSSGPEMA

biological target: cyclin-dependent kinase-like 3 (CDKL3), exogenous, wild type (UniProt Q8IVW4); assay: co-IP; exogenous CDKL3 with cyclins A2, B1, D1 and E1 (Figure 3A); bait, tags and cell line not shown

binding, binds:
cyclin A2 (co-IP with exogenous CDKL3) (from UniProt P20248 1-432)
cyclin B1 (co-IP with exogenous CDKL3) (from UniProt P14635 1-433)
cyclin D1 (co-IP with exogenous CDKL3) (from UniProt P24385 1-295)
cyclin E1 (co-IP with exogenous CDKL3) (from UniProt P24864 1-410)

biological target: cyclin-dependent kinase-like 3 (CDKL3), endogenous (human (endogenous; cell line of this blot not stated, all lines used are human)) (UniProt Q8IVW4); assay: co-IP; endogenous CDKL3 with endogenous cyclins, Rb and CDK4 (Figure 3B); cell line not shown

binding, binds:
cyclin A2, endogenous (from UniProt P20248 1-432)
cyclin B1, endogenous (from UniProt P14635 1-433)
cyclin D1, endogenous (from UniProt P24385 1-295)
cyclin E1, endogenous (from UniProt P24864 1-410)
B1

biological target: CDKL3 (in vitro competition assay) (UniProt Q8IVW4); assay: in vitro competition assay; CDKL3 and CDK2 competing for cyclin A2 (Supplemental Figure 2, L and M)

binding, binds:
cyclin A2 (in vitro competition assay) (from UniProt P20248 1-432)
